According to PubChem BioAssay AID1508600 (Functional Genomics Laboratory (NCATS/FGL), 2020):
The campaign covered roughly 53,000 sequences. About 3,700 (7%) were called active.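 The calls were made as follows: active = gene knockdowns whose robust z-score for IL-1 alpha signal is at least 2 or at most -2, so actives lie on both sides; inactive = the rest.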 This is one part of the list.

Test: Components of the Cytosolic LPS Sensing Pathway: Gene Identification via Genome-wide siRNA Screen;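 also: robust z of the log signal after scaling to non-targeting control siRNA wells of the plate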
Conditions: RAW264.7 macrophages, IL-1a HTRF, actives lie on both sides, screened at 100 nM (by protocol), cells primed 5 h with Pam3CSK4 first
How it was run: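 RAW264.7 mouse macrophages reverse-transfected with single siRNAs (100 nM final) for 48h, primed with Pam3CSK4 for 5 hours, then transfected with LipidA for 24 hour. Supernatant IL-1a read by HTRF; values normalized to negative-control median, log-transformed robust z-scores.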

Sequence | z-score
GGACGAGUACUGCUACAAUTT against Rrp8 | inactive: -0.32
GGCUUUUAGAUUUGUUUCATT against Hspa9 | inactive: 1.91
GCCUUAAGCUAACAGUGGATT against Nrxn3 | inactive: -0.0525
CCGCCUCUUACCGAAGUUCTT against Mettl4 | active: 3.04
GGGUCUGAUCCGACAUUUCTT against Ndufv1 | inactive: -0.112
GAUAACCAUGUUCUUUGGATT against Defa-rs2 | inactive: 0.835
CCAGCUGUGUAACACUACCTT against Gfi1 | inactive: 1.08
GGUUGAAGUGGUUUGUCAUTT against Sft2d1 | inactive: 0.447
GGGUCAAAAUGUGAGCUAUTT against Odr4 | inactive: -0.413
GGAUCCACAGUCAUUCAGATT against Sike1 | inactive: 1.13
GCCUCCUCAUAAUCCACAATT against Klk1b11 | inactive: 0.163
GGUCCAUAACUUGUGUGCUTT against 3300002I08Rik | inactive: -0.462
GGCAAGAAGUGCACUGUAUTT against Rac3 | inactive: 0.232
GGCAACCUUUUUAAAGAAGTT against Lurap1l | inactive: -0.822
GGUGGCAGAGGAUAUGUUUTT against Acbd4 | inactive: 0.646
CCGCCAUAUGUAUCACAGCTT against Rpl19 | inactive: 0.0184
GCAUAAGCCUAAAAAUUCUTT against Ptprd | inactive: 0.43
GGCCAGAAUGUAUAAAGCUTT against Mboat7 | inactive: -1
GGAGAUUGGACCACUAUGATT against Sec24d | inactive: -1.31
GGACUACGAUGAAGAGUUGTT against Pcgf6 | inactive: 1.16
GGAGACUAGCACACAAAUATT against Nt5c | inactive: 0.988
GGUAAAUGGCACACGUAGUTT against Hint1 | inactive: 0.42

Sequence | z-score
GGAACUAAAGCGAUAUUUATT against Med30 | inactive: 1.49
GGCAUUCACCAUACAAUGATT against Ufm1 | inactive: 0.687
CCCUCUGAAAAUGACCACUTT against Tprg | inactive: 1.09
GCACCUCUCUACAUUACUGTT against Igflr1 | inactive: -0.0949
GGCUACCUUCUACCUAAGGTT against Cyp2g1 | inactive: 1.42
GGAAAGGGUCUGUUUUACUTT against Zc2hc1c | inactive: 0.595
GGCAAUUCUUAACCUGUCCTT against Tacc1 | active: -2.75
GGCUGUGUGAGUCUGCUCATT against Ankrd55 | inactive: -0.0408
GGUUGAAUACGAAGGCUUATT against Bicd1 | inactive: 0.646
CCCUCCUCCAGCAUAUGAATT against Fbxl18 | inactive: 0.0672
GGGAGUAUGUUUGUGGCUCTT against S1pr1 | inactive: -0.144
GCCAUCUGCUUUAACCUCUTT against Aebp2 | inactive: 0.238
GCAGCAAACUUUUUAUCCATT against Armc1 | inactive: -1.1
GCUAUGAAGAUUCGAUUAATT against Rpa1 | inactive: 0.726
GGUGCAUUUAUGUAUUUCCTT against Olfr916 | inactive: -1.76
GGAGAAGGAACAAGAUAAATT against Srek1 | inactive: -1.67
GCUACAGGGAAAAAGUUCCTT against Olfr994 | inactive: 0.383
GGGUCUCAACAAAAUCAGUTT against Gli3 | inactive: 1.58
GGCAACUUCAUUGUGAAGGTT against Man2b1 | inactive: -0.231
CCUCUCCAUCUUUGACAUGTT against Olfr963 | inactive: 0.257
CCCUAUUCUUUUUGUCAUGTT against Olfr105-ps | inactive: -1.9
GGUGUUCCAGUUCUCAAAGTT against Slc44a4 | inactive: -0.213

Part of the list above, as tab-separated lines:
Sequence	z-score
GGACGAGUACUGCUACAAUTT against Rrp8	inactive: -0.32
GCCUUAAGCUAACAGUGGATT against Nrxn3	inactive: -0.0525
GGGUCAAAAUGUGAGCUAUTT against Odr4	inactive: -0.413
GGCUACCUUCUACCUAAGGTT against Cyp2g1	inactive: 1.42
GGUUGAAUACGAAGGCUUATT against Bicd1	inactive: 0.646

Shown as tab-separated lines: part of the list above.
Sequence	z-score
GGCAUUCACCAUACAAUGATT against Ufm1	inactive: 0.687
GCCAUCUGCUUUAACCUCUTT against Aebp2	inactive: 0.238

(continued)

Sequence | z-score
GGCAUGGAAGGGUUGGAUATT against Polk | inactive: -0.0837
GCAGCUCCCAAUCUCACUUTT against Ankrd34a | inactive: 0.171
GCCUUAUUACUGACCUUUUTT against Smarcd2 | inactive: 1.77
GGAUGCAUGAGAAAUGUUATT against Tbc1d14 | inactive: -0.0572
GGCUACCACACAUACCAAATT against Stra6 | inactive: -0.736
GGCCAACUAGGGUGUUUGUTT against Tsx | inactive: 0.182
GGUUUUAUGAGAAAGCAGATT against Ogfod1 | inactive: 0.0298
GGAAAAACAAUUGAGCAUGTT against Fyttd1 | inactive: 1.33
GGCGAUCGAGCCCUACAAATT against Bnip2 | inactive: 1.26
GCAAGUAGAUUGUCUCGAGTT against Scd1 | inactive: -0.12
GUUCUCACUCAAGGUCACCTT against Casz1 | inactive: 0.395
GGUAAAUGCUGACUGUGAUTT against Cilp | inactive: -1.75
GGGUCAACCAGCAAAACCUTT against Fam216b | inactive: -1.66
CGAAGGUCAAACAGUUUGATT against Stxbp6 | inactive: -0.558
GGGAUCUCUGAGCUCUGCUTT against Rilp | inactive: -1.61
GGCUCUUACACUAUAUUUUTT against Tle1 | inactive: -0.0524
GGAAAAGGACCUUAAAUUUTT against Rnpc3 | inactive: -0.6
GGGACCUAGCAAUUGCUUATT against A430057M04Rik | inactive: 0.613
GGUGGAUGAUGUUUAUCUCTT against Grsf1 | inactive: 1.04
GGCGCAAAAGGAAAAAAAGTT against Dnajc18 | inactive: -0.17
GGAUGGCUAUCUUGUAAUUTT against Sugct | inactive: 1.23
GGCAUAUACAUCAACAUGATT against Catsperg2 | inactive: -0.439

Sequence | z-score
GCAGCAUGCUGAAGAAAGATT against Jund | inactive: -0.929
GGAGACUCGGCUUCUUCAATT against Togaram1 | inactive: 1.76
GCAUUCGAAAUGAAGAUAATT against Dnajb1 | inactive: -1.75
GUUUGUGCUGUUAGGUUUUTT against Olfr1347 | active: 2.46
GGCUGGUAUUACAUCUAUCTT against Myo19 | inactive: 1.5
GGGAGCUAUGAACUCCUUUTT against Krtap5-5 | inactive: 0.0898
GCCGUGCAAAGUUUAUUCATT against Nme8 | inactive: 1.06
GGAUAUGAAUGAGACCUUCTT against Cables2 | inactive: -0.565
GGGCAUCAAAUUAAGAUCATT against Mylk3 | inactive: 1.64
GCCAAGCUUGCUGGAUCUUTT against 2310033P09Rik | inactive: 0.96
GGAAUCAACGGAUGAAAUUTT against Rab3gap1 | inactive: 0.716
GGUCAUCUCCAAACCCUCCTT against Rbpj | inactive: 1.51
CCUGCUACCGUACAGUCUCTT against Esm1 | inactive: -0.319
GGCUCCGUUAUAGAUGACATT against Aip | inactive: -0.665
GGAAAUCUCGUGAUUUUCATT against Tead1 | inactive: 0.502
GGAGAGCAGCAUUGAUAACTT against S100a5 | inactive: 1.42
GGAUUCCCAACACUUGAAUTT against Prcp | inactive: 0.423
GGUGAAUCGGGCCAAUAAGTT against Slc11a2 | inactive: 0.49
CCUACGGCAAACAGAGACUTT against Klk6 | active: -2.29
UGCAGUGCACUGUACUACATT against Ssxb2 | inactive: -0.0838
CCAAGUUGGCAUACUAUUCTT against Pank4 | inactive: -0.126
GGGAGACUUCGAAUAUUUATT against Uroc1 | inactive: -0.183

Sequence | z-score
GGCUUUGUGCUAAAAAAAATT against Pgm2l1 | inactive: -0.269
GCACUUGCUUCAAGUAAUATT against Ankrd52 | inactive: -0.0516
GGAGAAGAUGCUGUCUUGCTT against Kif21b | inactive: 0.182
GGUCGGAAGAAUCUAAAGGTT against Dmp1 | inactive: 0.374
GGCUAAUAAGAAGUGAAGUTT against Kifc5b | inactive: -0.351
GCAUAAGCGAAGAAGAAGUTT against Clk2 | inactive: 0.0795
GGCGAUCAGGCAUCAUCCUTT against Aox1 | inactive: -0.153
GGAAAGCUUACAGUUGAAATT against 4933427D06Rik | inactive: 0.992
GGGAAGGGUCCAAAAAUCUTT against Mmp17 | inactive: 0.349
CCUCUCCUGCUCUGACAUATT against Olfr933 | inactive: 0.541
GCCGAAAGCUAAAUCAAUCTT against Tnfrsf13c | inactive: -0.559
GGAGAAGAGCCUUCUCAAGTT against Srsf4 | active: 2.05
AGGAUACGAUUGAACGGCUTT against Rac3 | inactive: 0.289
UGGUACCACCAUUUUUACCTT against Olfr452 | inactive: -1.2
GGGCAUUGGUGACUUUGAATT against Hrob | active: -2.11
GCAACACGUACGAGCUCAATT against Pou2af1 | inactive: -0.926
GGAGCUAUCAGAGAAGAGGTT against Slc13a4 | inactive: -1.07
GGCAAUUUCCUUAUUAGAUTT against Nop58 | inactive: 0.967
GGCAUGGAAAAUUCUAGGGTT against Dnajc24 | inactive: -0.987
